# From article PMC3378586
# Results are given in words; binding and its absence hold for the method and conditions named. In cells and extracts the contact can be indirect. Some results given as binding are weak or reduced against the parent protein; the word gives no strength. Where a sequence is shown, tags or fusion partners need not be part of it.
# T1: Duf1-GFP (DUB-associated factor 1, Yol087c), tagged at the chromosomal locus (S. cerevisiae) (UniProt Q99247)
# T1 sequence: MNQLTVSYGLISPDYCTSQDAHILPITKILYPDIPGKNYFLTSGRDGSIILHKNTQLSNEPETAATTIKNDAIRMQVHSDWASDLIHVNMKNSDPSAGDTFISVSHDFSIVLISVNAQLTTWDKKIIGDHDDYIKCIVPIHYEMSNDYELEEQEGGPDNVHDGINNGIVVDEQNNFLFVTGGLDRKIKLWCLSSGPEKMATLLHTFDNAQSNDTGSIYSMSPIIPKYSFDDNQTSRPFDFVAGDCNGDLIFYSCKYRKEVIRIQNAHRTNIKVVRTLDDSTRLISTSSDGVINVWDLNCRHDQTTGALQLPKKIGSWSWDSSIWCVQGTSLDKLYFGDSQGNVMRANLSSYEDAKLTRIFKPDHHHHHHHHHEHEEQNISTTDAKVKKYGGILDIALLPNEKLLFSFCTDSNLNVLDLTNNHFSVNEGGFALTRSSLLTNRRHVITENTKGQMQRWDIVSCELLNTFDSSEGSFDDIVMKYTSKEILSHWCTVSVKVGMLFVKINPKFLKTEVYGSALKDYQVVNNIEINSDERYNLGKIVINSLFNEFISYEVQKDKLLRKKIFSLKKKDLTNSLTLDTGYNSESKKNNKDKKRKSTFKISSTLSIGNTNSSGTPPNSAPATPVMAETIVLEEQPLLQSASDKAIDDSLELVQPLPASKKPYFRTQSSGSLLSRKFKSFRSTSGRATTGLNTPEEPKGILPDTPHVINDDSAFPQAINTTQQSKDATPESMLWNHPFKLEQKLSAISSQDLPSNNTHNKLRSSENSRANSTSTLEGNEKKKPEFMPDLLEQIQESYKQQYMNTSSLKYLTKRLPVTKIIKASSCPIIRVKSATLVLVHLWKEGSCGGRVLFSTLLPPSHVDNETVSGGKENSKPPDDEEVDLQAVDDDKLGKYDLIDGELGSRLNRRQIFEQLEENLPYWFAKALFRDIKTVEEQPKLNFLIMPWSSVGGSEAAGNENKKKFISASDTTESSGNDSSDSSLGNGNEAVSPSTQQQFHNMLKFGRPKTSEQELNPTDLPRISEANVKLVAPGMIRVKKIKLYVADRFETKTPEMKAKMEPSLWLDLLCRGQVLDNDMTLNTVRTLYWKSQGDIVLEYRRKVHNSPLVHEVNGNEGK
# Molecular target: T1, Duf1-GFP (DUB-associated factor 1, Yol087c), tagged at the chromosomal locus (S. cerevisiae)
# Experiment: co-IP; immunoprecipitation of Duf1-GFP in native conditions with anti-GFP antibody from yeast lysates; blot with anti-HA; chromosome-encoded Ubp9-HA or Ubp13-HA, and Δubp9 Δubp13 cells with plasmid-encoded Ubp9 or Ubp13; lysis buffer 50 mM Hepes-KOH pH 7.5, 150 mM NaCl, 0.1% NP40, 10% glycerol, 1 mM EDTA; 1 h at 4°C
row,Binder,binding
1,"Ubp9-HA, tagged at the chromosomal locus (enzyme, UniProt P39967 1-754) MIKRWLSVNRKKSHPEKNTQGNDEINRKATSLKKTKGSGDPSIAKSPSAKSSTSSIPSNLASHERRSKFSSQTDNLAGNKHYHEHYHNMASTSDEREYDSSTTYEDRAFDTESSILFTTITDLMPYGDGSNKVFGYENFGNTCYCNSVLQCLYNIPEFRCNVLRYPERVAAVNRIRKSDLKGSKIRVFTNESFETSTNSGNSNTGYQSNDNEDAHNHHHLQQSDQDNSSSSTQEKQNNFERKRNSFMGFGKDKSNYKDSAKKDDNNEMERPQPVHTVVMASDTLTEKLHEGCKKIIVGRPLLKQSDSLSKASTTDCQANSHCQCDSQGSRITSVDDDVLVNPESCNDAVNNSNNNKENTFPTSEQRKKAALIRGPVLNVDHLLYPTEEATLYNGLKDIFESITENLSLTGIVSPTEFVKILKKENVLFNTMMQQDAHEFLNFLLNDFSEYIQRNNPRMRFGPQKTDNSNDNFITDLFKGTLTNRIKCLTCDNITSRDEPFLDFPIEVQGDEETDIQKMLKSYHQREMLNGVNKFYCNKCYGLQEAERMVGLKQLPHILSLHLKRFKYSEEQKSNIKLFNKILYPLTLDVSSTFNTSVYKKYELSGVVIHMGSGPQHGHYVCICRNEKFGWLLYDDETVESIKEETVLQFTGHPGDQTTAYVLFYKETQADKTENQNENIDTSSQDQMQTDNNIEQLIKCDDWLRDRKLRAAANIERKKTLGNIPEVKTAETKTPLNDKKRNKQKRKSRILSFIK",binds
2,"Ubp13-HA, tagged at the chromosomal locus (enzyme, UniProt P38187 1-747) MIRRWLTISKSGKKKKAVNDTITEEVEKVDFKPVNHDINDELCYSESSDNPSSSLFVSNLDTKETFLNEDNNLQISSGLDYSSETCNQGSNYSQDGIFYISNAKAINAYGGIITQGPEAPILAMKVSDSMPYGDGSNKVFGYENFGNTCYCNSVLQCLYNLSSLRENILQFPKKSRESDQPRKKEMRGKKPRIFTEASFEKSIAGTNGHLPNPKPQSVDDGKPTPVNSVNSNTAGPSEKKSKFFKSFSAKHVQDNNKKEGSPAILTTGKPSSRPQDAPPLIVETPNEPGAPSRLSFENVTDRPPDVPRKIIVGRVLNYENPSRGSSNSNNLDLKGESNSSLSTPLDKKDTRRSSSSSQISPEHRKKSALIRGPVLNIDHSLNGSDKATLYSSLRDIFECITENTYLTGVVSPSSFVDVLKRENVLFNTTMHQDAHEFFNFLLNELSEYIERENKKIAASDINSDSEPSKSKNFISDLFQGTLTNQIKCLTCDNITSRDEPFLDFPIEVQGDEETDIQEILKSYHQREMLNGSNKFYCDECCGLQEAERLVGLKQLPDTLTLHLKRFKYSEKQNCNIKLFNNIHYPLTLNVCSSINSKVCQKYELAGIVVHMGGGPQHGHYVSLCKHEKFGWLLFDDETVEAVKEETVLEFTGESPNMATAYVLFYKAMYSNAVEKNDRENMAKEQDDNIDNLIKYDDWLRTCNSGQKKKEELPIADDLDTAIDDSFVSNTPIKSSKKKSRMFSFRKS",binds
3,"plasmid-encoded Ubp9-3HA (pFL38-UBP9-3HA) (enzyme, UniProt P39967 1-754) MIKRWLSVNRKKSHPEKNTQGNDEINRKATSLKKTKGSGDPSIAKSPSAKSSTSSIPSNLASHERRSKFSSQTDNLAGNKHYHEHYHNMASTSDEREYDSSTTYEDRAFDTESSILFTTITDLMPYGDGSNKVFGYENFGNTCYCNSVLQCLYNIPEFRCNVLRYPERVAAVNRIRKSDLKGSKIRVFTNESFETSTNSGNSNTGYQSNDNEDAHNHHHLQQSDQDNSSSSTQEKQNNFERKRNSFMGFGKDKSNYKDSAKKDDNNEMERPQPVHTVVMASDTLTEKLHEGCKKIIVGRPLLKQSDSLSKASTTDCQANSHCQCDSQGSRITSVDDDVLVNPESCNDAVNNSNNNKENTFPTSEQRKKAALIRGPVLNVDHLLYPTEEATLYNGLKDIFESITENLSLTGIVSPTEFVKILKKENVLFNTMMQQDAHEFLNFLLNDFSEYIQRNNPRMRFGPQKTDNSNDNFITDLFKGTLTNRIKCLTCDNITSRDEPFLDFPIEVQGDEETDIQKMLKSYHQREMLNGVNKFYCNKCYGLQEAERMVGLKQLPHILSLHLKRFKYSEEQKSNIKLFNKILYPLTLDVSSTFNTSVYKKYELSGVVIHMGSGPQHGHYVCICRNEKFGWLLYDDETVESIKEETVLQFTGHPGDQTTAYVLFYKETQADKTENQNENIDTSSQDQMQTDNNIEQLIKCDDWLRDRKLRAAANIERKKTLGNIPEVKTAETKTPLNDKKRNKQKRKSRILSFIK",binds
